Experimental data from US7351732B2, “Cycloalkanedione derivatives, method for the production thereof and their pharmacological applications” (Schwarz Pharma S.L., priority 2002, dated 2008).

Target: T1, 5-HT1A (Rattus norvegicus, UniProt P19327)
T1 sequence (P19327 1-422): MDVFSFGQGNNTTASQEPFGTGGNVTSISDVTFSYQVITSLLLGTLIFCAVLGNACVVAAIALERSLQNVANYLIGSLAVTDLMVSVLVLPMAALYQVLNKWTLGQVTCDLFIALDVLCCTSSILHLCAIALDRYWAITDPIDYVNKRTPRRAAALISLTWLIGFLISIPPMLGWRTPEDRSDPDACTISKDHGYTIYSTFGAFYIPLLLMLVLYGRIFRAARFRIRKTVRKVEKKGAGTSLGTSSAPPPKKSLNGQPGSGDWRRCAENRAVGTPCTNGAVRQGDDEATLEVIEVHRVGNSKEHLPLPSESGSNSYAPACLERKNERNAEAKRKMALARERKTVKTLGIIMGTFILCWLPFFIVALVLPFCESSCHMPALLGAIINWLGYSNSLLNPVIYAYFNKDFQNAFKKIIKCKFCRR
Experiment: [35S]-GTPγS fixation test to coronal sections of rat brain
Format: biochemical
Design: fixation test of [^35S]-GTPγS to coronal sections of rat brain; from tissue; host or cells: coronal sections of rat brain
Conditions: 10 μM
Experimental: The in vitro agonist character of the new compounds was also evaluated in some cases by the fixation test of [^35S]-GTPγS to coronal sections of rat brain.

With O=C1C2CCCN2C(=O)N1CCCCNCC1CCc2ccccc2O1 (racemic) [Compound 1, (±)-2-[4-[(Chroman-2-yl)methylamine]butyl]-1,3-dioxoperhydropyrrolo[1,2-c]imidazol] the “[35S]-GTPγS fixation compared with 8-OH-DPAT” value was “especially similar to those obtained with the 5-HT1A, 8-OH-DPAT agonist prototype”.
